Patent US20120035098A1
No constants are given. Whether binding was seen depends on the method and setting. For some assays here: In cells and extracts the contact can be indirect. Some entries that bind do so weakly or less than the wild type.

The chains behind the UniProt entries cited, without tags or fusion partners. Residues count along the entry.
UniProt P17676: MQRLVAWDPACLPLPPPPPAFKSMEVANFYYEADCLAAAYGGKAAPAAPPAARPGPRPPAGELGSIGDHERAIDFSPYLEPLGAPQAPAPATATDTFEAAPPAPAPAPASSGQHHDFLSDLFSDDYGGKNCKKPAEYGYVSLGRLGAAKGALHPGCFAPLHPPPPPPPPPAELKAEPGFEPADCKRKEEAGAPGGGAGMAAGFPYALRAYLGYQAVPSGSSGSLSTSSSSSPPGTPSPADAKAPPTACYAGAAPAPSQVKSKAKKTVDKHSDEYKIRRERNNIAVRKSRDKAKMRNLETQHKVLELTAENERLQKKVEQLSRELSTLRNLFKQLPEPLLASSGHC
UniProt P27169, residues 2-355: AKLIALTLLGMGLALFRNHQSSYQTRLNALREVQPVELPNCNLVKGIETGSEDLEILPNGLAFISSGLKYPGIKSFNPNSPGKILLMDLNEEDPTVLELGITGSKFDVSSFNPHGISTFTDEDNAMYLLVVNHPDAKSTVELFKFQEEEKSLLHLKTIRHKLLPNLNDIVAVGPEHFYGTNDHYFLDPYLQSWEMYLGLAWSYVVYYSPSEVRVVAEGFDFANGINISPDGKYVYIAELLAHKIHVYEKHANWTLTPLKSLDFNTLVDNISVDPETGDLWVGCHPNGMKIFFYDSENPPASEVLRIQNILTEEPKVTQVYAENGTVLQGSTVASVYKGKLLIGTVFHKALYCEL

What was measured:
[1] = biological target: transcription factor C/EBPβ (UniProt P17676); assay: ELISA: C/EBPβ adsorbed on the plate, HPBP in solution, detected with anti-HPBP antibodies
[2] = biological target: human paraoxonase PON-1 (human) (UniProt P27169); assay: co-purification of the HPBP/PON-1 complex from human plasma (Cibacron affinity gel, then DEAE anion exchange)

binding [1]: binds | binding [2]: binds
B1: Human Phosphate Binding Protein (HPBP) (protein)
chain: DINGGGATLPQKLYLTPDVLTAGFAPYIGVGSGKGKIAFLENKYNQFGTDTTKNVHWAGSDSKLTATELATYAADKEPGWGKLIQVPSVATSVAIPFRKAGANAVDLSVKELCGVFSGRIADWSGITGAGRSGPIQVVYRAESSGTTELFTRFLNAKCTTQPGTFAVTTVFANSYSLGLSPLAGAVAAIGSVGVMAADNDVTTAQGRITYISPDFAAPTLAGLDDATKVARTGKGSSSGGGAEGKSPAAANVSAAISVVPLPAAADRGDPNVWTPVFGAVTGGGVVAYPDSGYPILGFTDLIFSECYANATQTGQVRNFFTKHYGTSANDNAAIQANAFVPLPSNWKAAVRASYLTASNALSIGDSAVCGGKGRPE
